# Test results published in the supplement of paper PMC8728848.
# Some of the results follow.
# Assays:
# Assay in all cases: glycan array binding signal (z-score within array); higher = stronger binding
# Conditions in all cases: glycan notation: IUPAC condensed, linker removed
# [1] = target: Fuc(a1-2)[Gal(a1-3)]Gal(b1-4)GlcNAc(b1-2)Man(a1-3)[Fuc(a1-2)[Gal(a1-3)]Gal(b1-4)GlcNAc(b1-2)Man(a1-6)]Man(b1-4)GlcNAc(b1-4)[Fuc(a1-6)]GlcNAc
# Summary of the method: (§1)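 Columns mapping to the same glycan were averaged after glycan names were converted to IUPAC-condensed notation. The data come from 3228 arrays in the Consortium for Functional Glycomics database, limited to those with an available protein sequence. Binding is reported as a within-array Z-score averaged across arrays of one protein sequence and across linkers.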
# [2] = target: Fuc(a1-2)[Gal(a1-3)]Gal(b1-4)GlcNAc(b1-3)GalNAc
# Summary of the method: as §1
# [3] = target: Fuc(a1-2)[Gal(a1-3)]Gal(b1-4)GlcNAc(b1-6)GalNAc
# Summary of the method: as §1
# [4] = target: Fuc(a1-2)[Gal(a1-3)]Gal(b1-4)[Fuc(a1-3)]Glc
# Summary of the method: as §1
# [5] = target: Fuc(a1-2)[Gal(a1-3)]Gal(b1-4)[Fuc(a1-3)]GlcNAc
# Summary of the method: as §1
# [6] = target: Fuc(a1-2)[Gal(a1-3)]Gal(b1-4)[Fuc(a1-3)]GlcNAc(b1-3)GalNAc
# Summary of the method: as §1
# [7] = target: Fuc(a1-2)[Gal(a1-4)]Gal(b1-4)GlcNAc
# Summary of the method: as §1
# [8] = target: Fuc(a1-2)[GalNAc(a1-3)]Gal
# Summary of the method: as §1
# [9] = target: Fuc(a1-2)[GalNAc(a1-3)]Gal(b1-3)GalNAc(a1-3)[Fuc(a1-2)]Gal(b1-4)GlcNAc
# Summary of the method: as §1
# [10] = target: Fuc(a1-2)[GalNAc(a1-3)]Gal(b1-3)GalNAc(b1-3)Gal(a1-4)Gal(b1-4)Glc
# Summary of the method: as §1
# [11] = target: Fuc(a1-2)[GalNAc(a1-3)]Gal(b1-3)GlcNAc
# Summary of the method: as §1
# [12] = target: Fuc(a1-2)[GalNAc(a1-3)]Gal(b1-3)GlcNAc(b1-2)Man(a1-3)[Fuc(a1-2)[GalNAc(a1-3)]Gal(b1-3)GlcNAc(b1-2)Man(a1-6)]Man(b1-4)GlcNAc(b1-4)GlcNAc
# Summary of the method: as §1
# [13] = target: Fuc(a1-2)[GalNAc(a1-3)]Gal(b1-3)GlcNAc(b1-2)Man(a1-3)[Fuc(a1-2)[GalNAc(a1-3)]Gal(b1-3)GlcNAc(b1-2)Man(a1-6)]Man(b1-4)GlcNAc(b1-4)[Fuc(a1-6)]GlcNAc
# Summary of the method: as §1
# [14] = target: Fuc(a1-2)[GalNAc(a1-3)]Gal(b1-3)GlcNAc(b1-3)GalNAc
# Summary of the method: as §1
# [15] = target: Fuc(a1-2)[GalNAc(a1-3)]Gal(b1-3)GlcNAc(b1-6)GalNAc
# Summary of the method: as §1
# [16] = target: Fuc(a1-2)[GalNAc(a1-3)]Gal(b1-4)Glc
# Summary of the method: as §1
# [17] = target: Fuc(a1-2)[GalNAc(a1-3)]Gal(b1-4)GlcNAc
# Summary of the method: as §1
# [18] = target: Fuc(a1-2)[GalNAc(a1-3)]Gal(b1-4)GlcNAc(b1-2)Man
# Summary of the method: as §1
# [19] = target: Fuc(a1-2)[GalNAc(a1-3)]Gal(b1-4)GlcNAc(b1-2)Man(a1-3)[Fuc(a1-2)[GalNAc(a1-3)]Gal(b1-4)GlcNAc(b1-2)Man(a1-6)]Man(b1-4)GlcNAc(b1-4)GlcNAc
# Summary of the method: as §1
# [20] = target: Fuc(a1-2)[GalNAc(a1-3)]Gal(b1-4)GlcNAc(b1-2)Man(a1-3)[Fuc(a1-2)[GalNAc(a1-3)]Gal(b1-4)GlcNAc(b1-2)Man(a1-6)]Man(b1-4)GlcNAc(b1-4)[Fuc(a1-6)]GlcNAc
# Summary of the method: as §1
# [21] = target: Fuc(a1-2)[GalNAc(a1-3)]Gal(b1-4)GlcNAc(b1-3)Gal(b1-4)GlcNAc
# Summary of the method: as §1
# [22] = target: Fuc(a1-2)[GalNAc(a1-3)]Gal(b1-4)GlcNAc(b1-3)Gal(b1-4)GlcNAc(b1-3)Gal(b1-4)GlcNAc
# Summary of the method: as §1
# [23] = target: Fuc(a1-2)[GalNAc(a1-3)]Gal(b1-4)GlcNAc(b1-3)GalNAc
# Summary of the method: as §1
# [24] = target: Fuc(a1-2)[GalNAc(a1-3)]Gal(b1-4)GlcNAc(b1-3)[Fuc(a1-2)[GalNAc(a1-3)]Gal(b1-4)GlcNAc(b1-6)]GalNAc
# Summary of the method: as §1
# [25] = target: Fuc(a1-2)[GalNAc(a1-3)]Gal(b1-4)GlcNAc(b1-6)GalNAc
# Summary of the method: as §1
# [26] = target: Fuc(a1-2)[GalNAc(a1-3)]Gal(b1-4)[Fuc(a1-3)]GlcNAc
# Summary of the method: as §1
# [27] = target: Fuc(a1-2)[GalNAc(a1-3)]Gal(b1-4)[Fuc(a1-3)]GlcNAc(b1-3)GalNAc
# Summary of the method: as §1
# [28] = target: Fuc(a1-2)[GalNAc(a1-4)]Gal(b1-4)GlcNAc
# Summary of the method: as §1
# [29] = target: Fuc(a1-2)[GalNAc(b1-3)]Gal
# Summary of the method: as §1
# [30] = target: Fuc(a1-3)GlcNAc
# Summary of the method: as §1
# [31] = target: Fuc(a1-3)[Gal(b1-4)]Glc6S
# Summary of the method: as §1
# [32] = target: Fuc(a1-3)[Gal(b1-4)]GlcNAc
# Summary of the method: as §1
# [33] = target: Fuc(a1-3)[Gal(b1-4)]GlcNAc(b1-2)Man
# Summary of the method: as §1
# [34] = target: Fuc(a1-3)[Gal(b1-4)]GlcNAc(b1-2)Man(a1-3)[Fuc(a1-3)[Gal(b1-4)]GlcNAc(b1-2)Man(a1-6)]Man(b1-4)GlcNAc(b1-4)GlcNAc
# Summary of the method: as §1
# [35] = target: Fuc(a1-3)[Gal(b1-4)]GlcNAc(b1-2)Man(a1-3)[Fuc(a1-3)[Gal(b1-4)]GlcNAc(b1-2)Man(a1-6)]Man(b1-4)GlcNAc(b1-4)[Fuc(a1-6)]GlcNAc
# Summary of the method: as §1
# [36] = target: Fuc(a1-3)[Gal(b1-4)]GlcNAc(b1-3)Gal(b1-3)[Fuc(a1-4)]GlcNAc
# Summary of the method: as §1
# [37] = target: Fuc(a1-3)[Gal(b1-4)]GlcNAc(b1-3)GalNAc
# Summary of the method: as §1
# [38] = target: Fuc(a1-3)[Gal(b1-4)]GlcNAc(b1-4)Gal(b1-4)[Fuc(a1-3)]GlcNAc
# Summary of the method: as §1
# [39] = target: Fuc(a1-3)[Gal(b1-4)]GlcNAc(b1-4)Gal(b1-4)[Fuc(a1-3)]GlcNAc(b1-4)Gal(b1-4)[Fuc(a1-3)]GlcNAc
# Summary of the method: as §1
# [40] = target: Fuc(a1-3)[Gal(b1-4)]GlcNAc(b1-6)GalNAc
# Summary of the method: as §1
# [41] = target: Fuc(a1-3)[Gal(b1-4)]GlcNAc(b1-6)[Gal(b1-3)GlcNAc(b1-3)]Gal(b1-4)Glc
# Summary of the method: as §1
# [42] = target: Fuc(a1-3)[Gal(b1-4)]GlcNAc6S
# Summary of the method: as §1
# [43] = target: Fuc(a1-3)[Gal3S(b1-4)]Glc
# Summary of the method: as §1
# [44] = target: Fuc(a1-3)[Gal3S(b1-4)]GlcNAc
# Summary of the method: as §1
# [45] = target: Fuc(a1-3)[Gal3S(b1-4)]GlcNAc6S
# Summary of the method: as §1
binder,measurement,setting,value
Pbx1CASH domain (Cryptococcus neoformans) (protein) MDETKPLWGNPRADGISLACKDSIVERNVVYDATDGAIVLFGSAGSTVKNNHVYARTRVILGGINLVDYEPWDGDYTNVKVHHNHLYALGRYFKVGIVIGPASWSDDTESVVHSASVTDNEFSGGYWGYGIVVASAKNFEVLRNKVIWDGEQGVARFSGVPGS,glycan array binding signal (z-score),[1],-0.277
same,glycan array binding signal (z-score),[2],0.23
same,glycan array binding signal (z-score),[3],1.25
same,glycan array binding signal (z-score),[4],-0.511
same,glycan array binding signal (z-score),[5],-0.053
same,glycan array binding signal (z-score),[6],1.43
same,glycan array binding signal (z-score),[7],0.034
same,glycan array binding signal (z-score),[8],-0.683
same,glycan array binding signal (z-score),[9],1.66
same,glycan array binding signal (z-score),[10],0.435
same,glycan array binding signal (z-score),[11],0.265
same,glycan array binding signal (z-score),[12],-0.508
same,glycan array binding signal (z-score),[13],-0.626
same,glycan array binding signal (z-score),[14],0.858
same,glycan array binding signal (z-score),[15],0.011
same,glycan array binding signal (z-score),[16],-0.564
same,glycan array binding signal (z-score),[17],-0.837
same,glycan array binding signal (z-score),[18],-0.653
same,glycan array binding signal (z-score),[19],-0.952
same,glycan array binding signal (z-score),[20],0.42
same,glycan array binding signal (z-score),[21],0.116
same,glycan array binding signal (z-score),[22],-0.185
same,glycan array binding signal (z-score),[23],0.711
same,glycan array binding signal (z-score),[24],-0.417
same,glycan array binding signal (z-score),[25],-0.246
same,glycan array binding signal (z-score),[26],-0.042
same,glycan array binding signal (z-score),[27],1.04
same,glycan array binding signal (z-score),[28],-0.628
same,glycan array binding signal (z-score),[29],-0.724
same,glycan array binding signal (z-score),[30],-0.88
same,glycan array binding signal (z-score),[31],-0.736
same,glycan array binding signal (z-score),[32],-0.439
same,glycan array binding signal (z-score),[33],0.21
same,glycan array binding signal (z-score),[34],0.368
same,glycan array binding signal (z-score),[35],-0.469
same,glycan array binding signal (z-score),[36],0.08
same,glycan array binding signal (z-score),[37],-0.322
same,glycan array binding signal (z-score),[38],0.019
same,glycan array binding signal (z-score),[39],-0.078
same,glycan array binding signal (z-score),[40],-0.382
same,glycan array binding signal (z-score),[41],-0.167
same,glycan array binding signal (z-score),[42],0.01
same,glycan array binding signal (z-score),[43],-0.572
same,glycan array binding signal (z-score),[44],0.094
same,glycan array binding signal (z-score),[45],-0.581

# Three records picked at random from the list so far, as already listed:
binder,measurement,setting,value
Pbx1CASH domain (Cryptococcus neoformans) (protein) MDETKPLWGNPRADGISLACKDSIVERNVVYDATDGAIVLFGSAGSTVKNNHVYARTRVILGGINLVDYEPWDGDYTNVKVHHNHLYALGRYFKVGIVIGPASWSDDTESVVHSASVTDNEFSGGYWGYGIVVASAKNFEVLRNKVIWDGEQGVARFSGVPGS,glycan array binding signal (z-score),[42],0.01
same,glycan array binding signal (z-score),[1],-0.277
same,glycan array binding signal (z-score),[45],-0.581
